Source: PubChem BioAssay AID1487 (National Center for Advancing Translational Sciences (NCATS), 2009)
This is one part of the list. Further columns of the screen follow, without active or inactive calls. Compounds called inactive in the main read-out are mostly missing here. Potencies come from curve fits of mixed quality, noted in brackets.

Assay: qHTS Assay for Modulators of Lamin A Splicing
Settings: HeLa LMNA splicing GFP/RFP minigene ratio, 48 h
Outline: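 S3 HeLa stable clones carrying a lamin A-EGFP splicing minigene plus DsRed2 were seeded at 600 cells/well in Opti-MEM with 2% FBS, pin-dosed and incubated 48 h at 37°C. Acumen cytometry (488 nm) gave the GFP/RFP total-intensity ratio.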

[1] = measured here: GFP splicing reporter channel
[2] = measured here: RFP viability control channel

Row | SMILES | AC50 [1] | AC50 [2]
1 | C[C@]12N[C@H](Cc3ccccc31)c1ccccc12 | 0.1 µM [falling, full curve] | 
2 | CCCCCCn1c(N)c(C(=O)NCCN2CCOCC2)c2nc3ccccc3nc21 | 25.1 µM [falling, single point] | 22.4 µM [falling, partial curve]
3 | CC(C)C(=O)c1cn(Cc2ccc(C#N)cc2)c2ccccc12 |  | 35.5 µM [rising, single point]
4 | CCOP(=O)(/C(C#N)=C(\C)O)c1ccccc1 (stereo not drawn) | 0.00708 µM [falling, full curve, poor fit] | 0.01 µM [falling, full curve, poor fit]
5 | OC(CCNCCc1c[nH]c2ccccc12)C(F)(F)Cl (stereo not drawn) | 12.6 µM [falling, partial curve, poor fit] | 
6 | CCOc1ccc(C2SCC(=O)Nc3c2c(=O)[nH]n3C2CCCCCC2)cc1 (stereo not drawn) | 5.62 µM [rising, single point] | 
7 | COc1ccc(-n2c(/C=C/c3cccc(F)c3)nc3ccccc3c2=O)cc1Cl | 2.82 µM [falling, partial curve, poor fit] | 
8 | CCN1CC=C(c2c[nH]c3ccccc23)CC1 |  | 17.8 µM [rising, partial curve]
9 | CCc1nnc(NS(=O)(=O)c2ccc(N=Cc3c(O)n(-c4ccccc4)c(=O)[nH]c3=O)cc2)s1 |  | 0.0282 µM [falling, full curve, poor fit]
10 | CC(C)N1C(=O)/C(=C/C=C/c2ccco2)C(=O)N(Cc2ccco2)C1=O | 35.5 µM [falling, single point] | 25.1 µM [falling, single point]
11 | O=[N+]([O-])c1ccc(C2C3C(c4ccccc4)=NC4(CCCC4)N32)cc1 (stereo not drawn) |  | 0.02 µM [rising, full curve, poor fit]
12 | C=CCC1(C(C)CCC)C(=O)N=C(S)NC1=O (stereo not drawn) | 0.0126 µM [falling, full curve, poor fit] | 
13 | O=C(COc1ccccc1)N1CCN(C/C=C/c2ccccc2)CC1 | 11.2 µM [rising, partial curve, poor fit] | 14.1 µM [rising, single point]
14 | Clc1ccc(C2NCCc3[nH]cnc32)cc1 (stereo not drawn) | 0.00447 µM [falling, full curve, poor fit] | 0.00891 µM [falling, full curve]
15 | O=Cc1cn(Cc2ccccc2[N+](=O)[O-])c2ccccc12 | 11.2 µM [rising, partial curve] | 12.6 µM [rising, partial curve, poor fit]
16 | Cn1c(=O)oc2cc(S(=O)(=O)N3CCCC(C(=O)Nc4ccccn4)C3)ccc21 (stereo not drawn) |  | 14.1 µM [rising, single point]
17 | CC(=O)OC1(Cc2ccccc2)CN2CCC1c1ccccc12 (stereo not drawn) |  | 35.5 µM [rising, single point]

Quoted at random: two records from the list
Row | SMILES | AC50 [1] | AC50 [2]
4 | CCOP(=O)(/C(C#N)=C(\C)O)c1ccccc1 (stereo not drawn) | 0.00708 µM [falling, full curve, poor fit] | 0.01 µM [falling, full curve, poor fit]
6 | CCOc1ccc(C2SCC(=O)Nc3c2c(=O)[nH]n3C2CCCCCC2)cc1 (stereo not drawn) | 5.62 µM [rising, single point] | 
